Data: article doi:10.1101/851410
Results are given in words; binding and its absence hold for the method and conditions named. Binding seen in cells or lysates may run through a third protein. Some binding calls cover weakened binding; strength is not graded here.

Amino acid sequences for entries named in this document (tags omitted). Residues count along the entry.
UniProt Q6DN90: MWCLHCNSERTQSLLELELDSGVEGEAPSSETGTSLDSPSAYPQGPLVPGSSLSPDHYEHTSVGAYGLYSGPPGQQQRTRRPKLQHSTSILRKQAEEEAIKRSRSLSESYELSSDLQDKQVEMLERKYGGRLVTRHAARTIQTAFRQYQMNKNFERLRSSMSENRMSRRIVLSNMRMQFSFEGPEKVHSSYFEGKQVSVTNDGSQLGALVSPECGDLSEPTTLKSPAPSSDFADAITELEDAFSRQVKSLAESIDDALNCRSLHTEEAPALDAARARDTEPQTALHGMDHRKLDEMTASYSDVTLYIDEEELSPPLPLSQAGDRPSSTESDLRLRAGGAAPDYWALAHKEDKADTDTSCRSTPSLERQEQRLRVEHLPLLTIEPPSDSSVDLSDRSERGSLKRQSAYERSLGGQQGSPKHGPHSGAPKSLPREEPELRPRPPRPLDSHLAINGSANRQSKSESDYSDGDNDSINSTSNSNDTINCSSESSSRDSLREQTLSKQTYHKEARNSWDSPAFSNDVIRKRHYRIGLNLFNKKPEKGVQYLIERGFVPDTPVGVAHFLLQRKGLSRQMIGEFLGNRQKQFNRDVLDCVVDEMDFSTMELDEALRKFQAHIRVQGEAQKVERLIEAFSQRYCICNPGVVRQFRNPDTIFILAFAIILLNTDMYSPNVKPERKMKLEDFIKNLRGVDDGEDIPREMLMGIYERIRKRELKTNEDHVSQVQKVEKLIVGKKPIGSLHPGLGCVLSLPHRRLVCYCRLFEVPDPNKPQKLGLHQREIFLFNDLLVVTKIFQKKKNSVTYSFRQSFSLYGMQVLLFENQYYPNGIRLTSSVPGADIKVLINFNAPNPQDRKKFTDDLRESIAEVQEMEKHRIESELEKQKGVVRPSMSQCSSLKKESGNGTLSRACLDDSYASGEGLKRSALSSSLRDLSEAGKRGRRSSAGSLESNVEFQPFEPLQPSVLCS
UniProt P08581, residues 25-1390: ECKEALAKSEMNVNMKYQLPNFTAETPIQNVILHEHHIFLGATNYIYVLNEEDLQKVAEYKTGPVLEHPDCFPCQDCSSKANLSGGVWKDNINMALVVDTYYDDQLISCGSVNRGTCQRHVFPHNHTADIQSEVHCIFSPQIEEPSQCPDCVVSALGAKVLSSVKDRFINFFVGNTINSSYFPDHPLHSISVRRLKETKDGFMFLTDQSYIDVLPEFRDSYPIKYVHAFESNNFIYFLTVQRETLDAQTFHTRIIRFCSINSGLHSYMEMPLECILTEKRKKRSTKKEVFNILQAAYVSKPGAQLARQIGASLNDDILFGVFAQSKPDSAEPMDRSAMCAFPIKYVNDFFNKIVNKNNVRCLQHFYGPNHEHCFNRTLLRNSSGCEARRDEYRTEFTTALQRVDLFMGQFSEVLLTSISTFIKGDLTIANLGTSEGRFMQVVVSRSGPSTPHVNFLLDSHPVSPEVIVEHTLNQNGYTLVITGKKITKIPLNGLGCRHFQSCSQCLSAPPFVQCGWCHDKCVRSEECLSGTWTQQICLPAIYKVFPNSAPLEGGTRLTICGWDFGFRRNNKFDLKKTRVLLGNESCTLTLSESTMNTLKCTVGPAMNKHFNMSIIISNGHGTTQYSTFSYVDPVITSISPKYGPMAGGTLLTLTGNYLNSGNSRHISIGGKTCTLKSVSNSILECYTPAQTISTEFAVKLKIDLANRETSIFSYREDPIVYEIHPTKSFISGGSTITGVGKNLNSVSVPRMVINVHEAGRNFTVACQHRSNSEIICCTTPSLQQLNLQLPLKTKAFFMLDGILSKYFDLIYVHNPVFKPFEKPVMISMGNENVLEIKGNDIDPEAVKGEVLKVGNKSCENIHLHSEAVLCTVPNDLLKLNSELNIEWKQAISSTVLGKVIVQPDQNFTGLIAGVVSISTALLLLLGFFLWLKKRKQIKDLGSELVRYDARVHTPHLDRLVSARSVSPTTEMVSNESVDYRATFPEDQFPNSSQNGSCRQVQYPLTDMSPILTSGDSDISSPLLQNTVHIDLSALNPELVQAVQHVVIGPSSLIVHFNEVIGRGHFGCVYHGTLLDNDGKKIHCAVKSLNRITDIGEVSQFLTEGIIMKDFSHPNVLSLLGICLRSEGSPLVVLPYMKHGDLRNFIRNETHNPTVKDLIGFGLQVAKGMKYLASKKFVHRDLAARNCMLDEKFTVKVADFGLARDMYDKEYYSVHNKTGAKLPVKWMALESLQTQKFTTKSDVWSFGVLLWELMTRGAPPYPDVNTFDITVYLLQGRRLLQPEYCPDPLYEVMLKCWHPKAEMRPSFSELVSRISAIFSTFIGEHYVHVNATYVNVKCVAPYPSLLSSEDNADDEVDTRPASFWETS
UniProt Q92673, residues 82-2214: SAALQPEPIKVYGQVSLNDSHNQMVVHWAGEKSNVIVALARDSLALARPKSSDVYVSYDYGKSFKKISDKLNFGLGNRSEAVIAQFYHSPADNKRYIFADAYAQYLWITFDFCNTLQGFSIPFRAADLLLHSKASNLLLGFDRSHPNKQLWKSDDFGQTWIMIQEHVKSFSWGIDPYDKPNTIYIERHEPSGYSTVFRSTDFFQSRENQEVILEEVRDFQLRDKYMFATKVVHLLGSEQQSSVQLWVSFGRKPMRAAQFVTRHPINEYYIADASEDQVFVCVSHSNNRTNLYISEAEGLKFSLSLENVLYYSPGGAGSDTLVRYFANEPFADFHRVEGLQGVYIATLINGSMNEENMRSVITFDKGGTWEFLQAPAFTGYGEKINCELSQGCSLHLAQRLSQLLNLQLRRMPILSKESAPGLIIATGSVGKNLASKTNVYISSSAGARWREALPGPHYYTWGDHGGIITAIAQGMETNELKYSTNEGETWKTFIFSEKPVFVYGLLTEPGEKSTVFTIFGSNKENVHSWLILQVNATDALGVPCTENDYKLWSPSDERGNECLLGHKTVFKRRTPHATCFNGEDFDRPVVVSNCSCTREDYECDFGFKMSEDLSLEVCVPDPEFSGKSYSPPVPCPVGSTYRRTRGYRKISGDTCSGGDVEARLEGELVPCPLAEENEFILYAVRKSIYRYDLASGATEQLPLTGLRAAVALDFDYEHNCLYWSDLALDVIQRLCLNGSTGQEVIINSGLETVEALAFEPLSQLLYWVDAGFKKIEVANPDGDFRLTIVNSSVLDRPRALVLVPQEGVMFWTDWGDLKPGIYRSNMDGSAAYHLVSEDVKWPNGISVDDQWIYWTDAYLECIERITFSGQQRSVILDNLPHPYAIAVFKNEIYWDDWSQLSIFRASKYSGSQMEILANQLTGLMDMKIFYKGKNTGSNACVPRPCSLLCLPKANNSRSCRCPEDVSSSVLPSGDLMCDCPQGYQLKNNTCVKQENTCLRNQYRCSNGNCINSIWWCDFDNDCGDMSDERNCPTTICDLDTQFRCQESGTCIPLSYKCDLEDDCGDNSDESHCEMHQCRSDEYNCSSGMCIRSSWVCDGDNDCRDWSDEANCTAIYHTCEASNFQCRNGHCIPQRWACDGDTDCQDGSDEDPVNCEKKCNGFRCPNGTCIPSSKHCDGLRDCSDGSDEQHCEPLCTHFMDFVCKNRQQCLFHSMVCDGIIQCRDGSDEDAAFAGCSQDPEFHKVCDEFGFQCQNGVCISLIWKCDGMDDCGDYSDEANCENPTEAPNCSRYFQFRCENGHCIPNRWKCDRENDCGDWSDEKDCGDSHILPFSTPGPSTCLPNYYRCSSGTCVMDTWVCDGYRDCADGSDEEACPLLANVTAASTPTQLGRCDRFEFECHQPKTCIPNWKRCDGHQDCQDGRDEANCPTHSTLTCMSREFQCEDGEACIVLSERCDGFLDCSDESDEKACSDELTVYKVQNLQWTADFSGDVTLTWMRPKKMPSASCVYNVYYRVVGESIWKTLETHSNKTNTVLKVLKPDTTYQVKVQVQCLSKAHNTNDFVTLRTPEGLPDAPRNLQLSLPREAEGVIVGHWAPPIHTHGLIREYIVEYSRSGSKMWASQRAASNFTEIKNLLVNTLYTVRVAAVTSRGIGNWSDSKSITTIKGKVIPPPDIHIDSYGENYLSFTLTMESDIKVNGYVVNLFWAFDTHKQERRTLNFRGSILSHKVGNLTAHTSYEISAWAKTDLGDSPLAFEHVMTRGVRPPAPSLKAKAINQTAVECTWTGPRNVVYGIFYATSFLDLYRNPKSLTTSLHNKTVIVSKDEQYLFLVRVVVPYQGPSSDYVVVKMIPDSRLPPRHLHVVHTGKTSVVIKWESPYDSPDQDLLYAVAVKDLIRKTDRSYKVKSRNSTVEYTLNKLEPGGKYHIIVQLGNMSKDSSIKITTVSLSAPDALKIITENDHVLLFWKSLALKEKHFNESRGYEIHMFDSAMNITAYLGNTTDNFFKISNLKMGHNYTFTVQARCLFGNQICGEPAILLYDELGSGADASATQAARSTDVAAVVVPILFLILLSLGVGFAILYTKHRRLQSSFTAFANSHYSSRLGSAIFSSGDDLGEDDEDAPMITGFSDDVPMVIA

Legend:
GFP-IQSEC1 v2 (human) = GFP-IQSEC1 v2 (human) (UniProt Q6DN90); assay: co-IP
[1] = molecular target: Met, the receptor for HGF (human (endogenous in PC3)) (UniProt P08581); assay: co-IP

| binding (GFP-IQSEC1 v2 (human)) | binding [1] | Substance |
| --- | --- | --- |
| binds | binds | LRP1 (Low density lipoprotein receptor-Related Protein 1) (from UniProt Q07954 20-4544) |
| binds | – | Met, the receptor for HGF (from UniProt P08581 25-1390) |
| binds | – | SORL1 (Sortilin-Related Receptor 1) (from UniProt Q92673 82-2214) |
